For part of these data: At least one structure is not confirmed: it was looked up by name or label, or the drawing left a doubt. Some entries share one result that the patent states for a list of compounds.
Assays:
[1] = tested on: highly resistant strains of E. coli, K. pneumonia and P. aeruginosa; assay: MIC, summary over the strain panel; type: cell-based; settings: agent alone
Protocol: The antibacterial activity of combinations according to the invention was investigated against various bacterial strains. In a typical study, minimum inhibitory concentrations (MIC) were determined using Muller Hinton Agar (MHA) (BD, USA) according to Clinical and Laboratory Standards Institute (CLSI) recommendations, (Clinical and Laboratory Standards Institute (CLSI), Performance Standards for Antimicrobial Susceptibility Testing, 20th Informational Supplement, M 100-S20, Volume 30, No. 1, 2010). In short, the inocula were adjusted to deliver about 10^4 colony forming units (CFU) per spot with a multipoint inoculator (Applied Quality Services, UK). The plates were pored with doubling concentration range of the test combinations according to invention containing MHA. The plates were inoculated and were incubated at 35° C. for 18 hours.

[2] = tested on: clinical isolate of K. pneumoniae S 48 producing metallo beta-lactamases [SHV, TEM, NDM-1]; assay: Time kill study; type: cell-based; settings: used alone at 8 mcg/ml, at the end of 6 hours
Protocol: Typically, freshly grown cultures were diluted to the required cell density (initial starting inoculum) in Cation adjusted Muller Hinton broth medium BD, USA). The antibacterial agents at the required concentrations were added into the culture-containing medium either alone or in combination. The samples were incubated under shaking condition (120 rpm) at 37° C. Enumeration of viable bacterial count was undertaken, every 2 hour, by diluting in normal saline and plating on to the Tryptic Soya Agar plates (BD, USA). The plates were incubated for 24 hours to arrive at the viable bacterial count. […] The decrease of 1 Log CFU/ml, after administration of combination of present invention, in comparison to initial bacterial count corresponds to 90% killing of bacteria. Similarly, 2 Log CFU/ml reductions corresponds to 99% killing of bacteria and 3 Log CFU/ml reductions is equal to 99.9% killing of bacteria.

Compound	MICs (range over the strains) [1]	Change in bacterial count (in words) [2]
C[C@@H](O)[C@H]1C(=O)N2C(C(=O)O)=C(S[C@@H]3CN[C@H](C(=O)N(C)C)C3)[C@H](C)[C@H]12 [Meropenem, meropenem]	16 to 64 µg/mL	
NCC[C@H](O)C(=O)N[C@@H]1C[C@H](N)[C@@H](O[C@H]2O[C@H](CN)[C@@H](O)[C@H](O)[C@H]2O)[C@H](O)[C@H]1O[C@H]1O[C@H](CO)[C@@H](O)[C@H](N)[C@H]1O [Amikacin, amikacin]	16 to 64 µg/mL	
C[C@@H](O)[C@H]1C(=O)N2C(C(=O)O)=C(SCCN=CN)C[C@H]12 [Imipenem, imipenem]		no decrease in bacterial count was observed
